Measured values taken from paper PMC7698808.
No constants are given. Whether binding was seen depends on the method and setting.

B1: human metallocarboxypeptidase Z, recombinant form CPZ (residues 19-623) (enzyme, UniProt Q66K79 19-623)
chain: RPGCEFERNPAGECHRPPAADSATCVDLQLRTCSDAAYNHTTFPNLLQHRSWEVVEASSEYILLSVLHQLLEGQCNPDLRLLGCAVLAPRCEGGWVRRPCRHICEGLREVCQPAFDAIDMAWPYFLDCHRYFTREDEGCYDPLEKLRGGLEADEALPSGLPPTFIRFSHHSYAQMVRVLRRTASRCAHVARTYSIGRSFDGRELLVIEFSSRPGQHELMEPEVKLIGNIHGNEVAGREMLIYLAQYLCSEYLLGNPRIQRLLNTTRIHLLPSMNPDGYEVAAAEGAGYNGWTSGRQNAQNLDLNRNFPDLTSEYYRLAETRGARSDHIPIPQHYWWGKVAPETKAIMKWMQTIPFVLSASLHGGDLVVSYPFDFSKHPQEEKMFSPTPDEKMFKLLSRAYADVHPMMMDRSENRCGGNFLKRGSIINGADWYSFTGGMSDFNYLHTNCFEITVELGCVKFPPEEALYILWQHNKESLLNFVETVHRGIKGVVTDKFGKPVKNARISVKGIRHDITTAPDGDYWRLLPPGIHIVIAQAPGYAKVIKKVIIPARMKRAGRVDFILQPLGMGPKNFIHGLRRTGPHDPLGGASSLGEATEPDPLRARR
B2: human metallocarboxypeptidase Z without the N-terminal Fz domain, recombinant form CPZΔFz (residues 186-623) (domain or fragment, UniProt Q66K79 186-623)
chain: SHHSYAQMVRVLRRTASRCAHVARTYSIGRSFDGRELLVIEFSSRPGQHELMEPEVKLIGNIHGNEVAGREMLIYLAQYLCSEYLLGNPRIQRLLNTTRIHLLPSMNPDGYEVAAAEGAGYNGWTSGRQNAQNLDLNRNFPDLTSEYYRLAETRGARSDHIPIPQHYWWGKVAPETKAIMKWMQTIPFVLSASLHGGDLVVSYPFDFSKHPQEEKMFSPTPDEKMFKLLSRAYADVHPMMMDRSENRCGGNFLKRGSIINGADWYSFTGGMSDFNYLHTNCFEITVELGCVKFPPEEALYILWQHNKESLLNFVETVHRGIKGVVTDKFGKPVKNARISVKGIRHDITTAPDGDYWRLLPPGIHIVIAQAPGYAKVIKKVIIPARMKRAGRVDFILQPLGMGPKNFIHGLRRTGPHDPLGGASSLGEATEPDPLRARR

How the values were obtained:
[1] = molecular target: human metallocarboxypeptidase Z, recombinant form CPZ (residues 19-623) (human) (UniProt Q66K79); experiment: SEC; last purification step; HiLoad Superdex 75 26/60 column, 50 mM Tris-HCl, pH 7.5, 150 mM NaCl; both purified
[2] = molecular target: human metallocarboxypeptidase Z without the N-terminal Fz domain, recombinant form CPZΔFz (residues 186-623) (human) (UniProt Q66K79); experiment: as above

Binder	binding [1]	binding [2]
B1	no binding	–
B2	–	no binding
